## Library screen at single concentrations

The chains behind the UniProt entries cited, without tags or fusion partners. Residues count along the entry.
UniProt Q4DA54, 1-478: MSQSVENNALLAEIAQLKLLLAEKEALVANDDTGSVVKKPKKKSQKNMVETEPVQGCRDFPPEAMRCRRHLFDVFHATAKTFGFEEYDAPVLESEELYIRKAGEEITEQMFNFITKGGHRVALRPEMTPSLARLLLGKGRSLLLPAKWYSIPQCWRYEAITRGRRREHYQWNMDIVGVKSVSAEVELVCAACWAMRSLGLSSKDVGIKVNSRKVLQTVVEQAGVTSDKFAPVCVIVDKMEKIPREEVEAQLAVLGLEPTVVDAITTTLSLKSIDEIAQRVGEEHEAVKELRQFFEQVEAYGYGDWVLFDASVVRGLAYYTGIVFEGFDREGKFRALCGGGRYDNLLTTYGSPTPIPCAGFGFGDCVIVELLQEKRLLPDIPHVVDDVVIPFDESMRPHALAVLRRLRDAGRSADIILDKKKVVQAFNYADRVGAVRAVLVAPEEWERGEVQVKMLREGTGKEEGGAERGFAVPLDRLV
UniProt P9WNZ1, whole entry: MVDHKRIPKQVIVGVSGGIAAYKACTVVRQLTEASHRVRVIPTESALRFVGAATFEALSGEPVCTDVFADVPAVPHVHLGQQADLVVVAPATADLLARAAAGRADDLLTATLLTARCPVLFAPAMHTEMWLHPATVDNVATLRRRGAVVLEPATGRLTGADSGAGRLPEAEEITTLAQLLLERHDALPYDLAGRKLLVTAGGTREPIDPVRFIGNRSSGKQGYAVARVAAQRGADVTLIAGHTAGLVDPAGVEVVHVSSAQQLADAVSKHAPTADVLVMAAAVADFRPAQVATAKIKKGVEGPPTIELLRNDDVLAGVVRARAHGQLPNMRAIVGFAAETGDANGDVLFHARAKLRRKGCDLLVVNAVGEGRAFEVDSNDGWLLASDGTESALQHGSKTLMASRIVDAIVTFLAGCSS

TcHisRS: 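Enzyme assay of histidyl-tRNA synthetase; the read-out is not stated. Target: Histidine-tRNA ligase, Trypanosoma cruzi CL Brener (UniProt Q4DA54). Tested at 30 µM. Higher reads as stronger inhibition (inferred: compounds with an IC50 in retests scored well above the rest). Of about 69,000 compounds tested this way, about 31 (0.045%) reached 50% or more in at least one test.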
CoaBC: 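Coenzyme A biosynthesis protein CoaBC, Mycobacterium tuberculosis (UniProt P9WNZ1). Enzyme assay of CoaBC with a phosphate dye (Biomol Green) read at 650 nm. Compounds at 30 µM. Direction is inferred from only a few compounds that gave an IC50; most scored high, so higher reads as stronger inhibition. Most strong results did not repeat in a second test. About 67,000 compounds were tested under these conditions; 0.06% (about 40) showed 50% or more at least once.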

Values are the deposited “Percent Effect”, in %.
The controls that fix the scale are not given in the record; negative values are as filed.
Compounds were drawn at random from those tested, without regard to their results.
A dash means the value is not listed here; it may have been measured.

| compound | TcHisRS | CoaBC |
|---|---|---|
| `Cc1cc(C)c(CNC(=O)N2CCC(N3CCNC3=O)CC2)c(=O)[nH]1` | -1.031 | 5.134 |
| `Cc1ccc(CNc2ccn(CCC(N)=O)n2)c(Br)c1` | -3.704 | 1.595 |
| `Cc1ccc(N(C)[C@@H]2CC[C@@H]3CN(C(=O)CC4CCOCC4)C[C@@H]32)nn1` | 12.41 | 18.18 |
| `CN(Cc1ccc2c(c1)OCO2)Cc1cscn1` | -9.524 | -1.106 |
| `O=C(CCS(=O)(=O)c1ccccc1)NCCCn1cccn1` | 4.95 | 5.825 |
| `Cc1c(C)n(-c2ccccn2)c2nc3c(c(N)c12)CCCCC3` | 7.602 | 6.061 |
| `Cc1nc[nH]c1CN1CCN(C(=O)CCC(F)(F)F)[C@H]2CS(=O)(=O)C[C@H]21` | 2.479 | 3.509 |
| `CC(=O)N(C)Cc1cccc(NC(=O)c2cnn(C)c2C)c1` | -5.155 | 5.369 |
| `CN1C(=O)[C@H]2CC[C@@H]1CN(C(=O)c1sccc1S(N)(=O)=O)C2` | 3.185 | - |
| `CCNC(=O)Nc1ccc2c(ccn2CC(=O)N(CC)CC)c1` | 13.31 | 0.266 |
| `CN(C)Cc1ccc(CNC(=O)NCC2(C)CCCS2)cc1` (stereo not drawn) | 5.288 | 1.908 |
| `O=C1NC[C@@]2(C(=O)O)CN(Cc3cccc(C(F)(F)F)c3)C[C@@H]12` | 2.174 | 3.831 |
| `c1cncc(CN(Cc2ccsc2)Cc2ccc(C3CCCCO3)o2)c1` (stereo not drawn) | 2.062 | 16.04 |
| `COc1ccc(Cl)cc1S(=O)(=O)N(C)CC(=O)Nc1cccnc1` | 3.004 | 4.665 |
| `CN(C)c1nccc(CNC(=O)NC(C)(C)C)n1` | 1.299 | 3.171 |
| `CCc1nnsc1C(=O)NCc1nnc2n1CCC2` | 1.064 | -3.074 |
| `CCC(C)n1cnc(S(=O)(=O)N(C)C)c1` (stereo not drawn) | 7.143 | 0.7353 |
| `COCCN1CCC(CNC(=O)C2(c3ccc(Br)cc3)CCCC2)C1` (stereo not drawn) | 5.202 | 3.959 |
| `Cc1cc(NCc2cn(C)nc2-c2cccnc2)n(C)n1` | 7.921 | -2.309 |
| `Cc1cc(C)nc(C2CCCN2C(=O)c2coc(C)n2)n1` (stereo not drawn) | -9.231 | -1.663 |
| `Cn1cccc1C(=O)NCc1cn2c(n1)CN(CC1CCOC1)CC2` (stereo not drawn) | -3.061 | -1.112 |
| `CCOCC1CN(c2ccncn2)Cc2cnn(CC3CC3)c21` (stereo not drawn) | 15.7 | 2.521 |
| `CN(Cc1cccc(F)c1)C(=O)CN1CCCC(Cn2cncn2)C1` (stereo not drawn) | 12.5 | 7.674 |
| `CN(C)C(=O)N1CC[C@]2(O)CCN(C(=O)c3ccc(C#N)nc3)C[C@@H]2C1` | 8.671 | 2.978 |
| `O=C(CCc1ccncc1)Nc1ccc(OCC2CCOCC2)cc1` | 1.299 | 3.902 |
| `COc1ccnc(NC2CCN(CC(=O)N3CCCC3)CC2)n1` | 2.89 | 0 |
| `Cc1nccn1-c1cncc(C2CCCN2Cc2cccnc2)n1` (stereo not drawn) | 9.89 | 7.282 |
| `CN(Cc1nc(COc2ccccc2)no1)CC1Cc2ccccc2O1` (stereo not drawn) | 2.186 | 8.557 |
| `COCc1nc(C(=O)NS(=O)(=O)c2ccc(Cl)cc2F)cs1` | 3.812 | 2.632 |
| `CCC(NC(=O)C1CCN(S(C)(=O)=O)CC1)c1ccc(C)c(C)c1` (stereo not drawn) | 1.345 | -0.2538 |
| `O=C(O)CC[C@@H]1CN(c2ccncc2)CC[C@@H]1N1CCOCC1` | 8.861 | 0.4808 |
| `Cn1c(CN2CCN(CC3CC3)CC2)nnc1C1CCC1` | 5.785 | -3.625 |
| `O=C(c1ccnnc1)N1C[C@H]2CCC[C@@]2(COCC2CCOCC2)C1` | 1.657 | 2.571 |
| `CCCn1cnnc1CNC(=O)CC1C(=O)NCCN1CC=C(C)C` (stereo not drawn) | -10.23 | 13.92 |
| `Cc1ccc([C@@H]2CN(C(=O)c3ccon3)C[C@H]2NC(=O)C2CC2)cc1` | 2.041 | 5.159 |
| `CC(=O)Nc1nc2c(s1)CN(CC(=O)Nc1ccc(C)c(Cl)c1)CC2` | 2.424 | 4.087 |
| `CSc1ccccc1C(=O)N(C)Cc1nncn1C(C)C` | -0.8 | 7.006 |
| `COCc1nc(C(=O)NS(=O)(=O)c2c(C)c(C)cc(C)c2C)cs1` | 2.053 | 0.2632 |
| `CC(C)N1CCC(CC(=O)N2CCCCC2CCn2cccn2)CC1` (stereo not drawn) | 5.882 | 4.783 |
| `Cc1nn(C)c(C)c1C(=O)NC(C)CC(=O)c1cccs1` (stereo not drawn) | 4.95 | 1.456 |
| `COc1nc2cc(C)ccc2cc1CN(C)Cc1cc(C)[nH]n1` | 8.333 | 3.417 |
| `CC(=O)N1CCC2(C1)c1ccccc1S(=O)(=O)N2CCC(C)C` (stereo not drawn) | -1.905 | -1.356 |
| `COc1ccccc1OCCC(=O)N1CCCC1Cn1cc(C)cn1` (stereo not drawn) | 2.642 | 1.282 |
| `CC(C)Cc1noc(CNc2cc3c(cc2Cl)OCCCO3)n1` | 4.167 | 2.071 |
| `Cn1cnnc1C1CCN(C(=O)COCc2ccccc2Cl)CC1` | 0 | -0.1211 |
| `CNS(=O)(=O)c1ccc(CN2CCCN(CC(C)C)CC2)cc1` | 10.34 | -20.97 |
| `Fc1ccc(CN2CCn3cc(Cn4cccn4)nc3C2)cc1` | 8.537 | 5.514 |
| `CC(NC(=O)c1cc2n(n1)CCCN(C(C)C)C2)c1cn2ccsc2n1` (stereo not drawn) | 5.952 | 0.2451 |
| `c1csc(CN2CCC3(CC2)COCCN3CC2CC2)n1` | 2.151 | 0.6342 |
| `Cc1cc2nc(-c3ccccc3)cc(NCC3CCCOC3)n2n1` (stereo not drawn) | 5.603 | -0.3802 |
| `CC(=O)Nc1cccc2c1ccn2CC(=O)Nc1nc[nH]n1` | 5 | 1.211 |
| `Cc1nonc1OCCNC(=O)COc1ccc(Cl)cc1Cl` | 9.278 | 0.8949 |
| `COc1cccc(CN(C(=O)NC2CC2)C2CCC(O)CC2)c1` (stereo not drawn) | 6.494 | - |
| `CN(Cc1cc(C[C@@H]2C[C@H](N)C2(C)C)no1)c1ccccc1` | 5.941 | -6.998 |
| `OCC1(NCc2cccc(-n3cccn3)c2)CCOCC1` | 1.587 | -0.994 |
| `CCn1cnnc1C1CCN(C(=O)c2c(C)oc(C)c2C)CC1` | 8.543 | -1.324 |
| `COc1ccc(N2CCN(CC(O)c3ccc(C)cc3C)CC2)cc1` (stereo not drawn) | -1.22 | 0.7595 |
| `CN(C)CCN(Cc1cccc(C(F)(F)F)c1)C(=O)c1cc[nH]n1` | 4.065 | -10.13 |
| `CSCC[C@H](NC(=O)CCn1ccc2c(Br)cccc21)C(=O)O` | 7.602 | -1.263 |
| `CC(C)(C)c1coc([C@@H]2COCCN2Cc2c[nH]cn2)n1` | -3.483 | 8.448 |
| `CCCC(C)(C)NC(=O)c1cnc(CC)s1` | 3.922 | 0.4878 |
| `CN1CCN(C(=O)c2cccc(CN3CCOCC3)c2)CC1` | -1.508 | 1.324 |
| `Cn1cncc1C(=O)N1CCCC(c2ccn[nH]2)C1` (stereo not drawn) | 10.45 | 5.646 |
| `CC(=O)N1CCN(CCNC(=O)c2nc3ccccc3c(=O)[nH]2)CC1` | 7.602 | 0 |
| `c1cnc(N2CCC3(COCCN(CC4CC4)C3)C2)nc1` (stereo not drawn) | 3.825 | 1.158 |
| `Cn1cc(C(=O)N[C@@H]2CN(Cc3ccoc3)[C@@H]3CCCO[C@@H]32)cn1` | 3.315 | 1.238 |
| `Cc1cc2n(n1)CC(CNCc1ccc(-n3ccnc3C)nc1)CN2` (stereo not drawn) | 5.325 | 16.35 |
| `Cc1cnc(C(=O)N2CCC(C(=O)c3cc(F)ccc3F)CC2)cn1` | 8.455 | -1.305 |
| `COc1cc(C)c(CNC(C)c2csc(C3CC3)n2)cc1OC` (stereo not drawn) | 3.529 | 1.474 |
| `CCN1Cc2cc(F)ccc2N(CC(O)C(F)(F)F)CCC1=O` (stereo not drawn) | 5.618 | 1.453 |
| `Cc1nc(CC(C)C)cc(C(=O)N2C[C@@H](CN(C)C)[C@@H](CO)C2)n1` | 7.407 | 3.067 |
| `O=C(NC1CCCC1)c1nc2c(o1)CN(C(=O)CCO)C2` | -32.18 | -18.65 |
| `Cc1cccn2c(=O)cc(CN3CCCCC3Cn3cncn3)nc12` (stereo not drawn) | -0.8475 | -4.846 |
| `CN1CCN(C(=O)c2ncn3c2CN(C)S(=O)(=O)c2ccccc2-3)CC1` | 8.04 | 1.454 |

For reference, 6 entries once more:

- CCN1Cc2cc(F)ccc2N(CC(O)C(F)(F)F)CCC1=O (stereo not drawn) : TcHisRS: 5.618%; CoaBC: 1.453%
- O=C(NC1CCCC1)c1nc2c(o1)CN(C(=O)CCO)C2 : TcHisRS: -32.18%; CoaBC: -18.65%
- Cc1ccc(N(C)[C@@H]2CC[C@@H]3CN(C(=O)CC4CCOCC4)C[C@@H]32)nn1 : TcHisRS: 12.41%; CoaBC: 18.18%
- COCc1nc(C(=O)NS(=O)(=O)c2ccc(Cl)cc2F)cs1 : TcHisRS: 3.812%; CoaBC: 2.632%
- COCc1nc(C(=O)NS(=O)(=O)c2c(C)c(C)cc(C)c2C)cs1 : TcHisRS: 2.053%; CoaBC: 0.2632%
- CC(C)(C)c1coc([C@@H]2COCCN2Cc2c[nH]cn2)n1 : TcHisRS: -3.483%; CoaBC: 8.448%

Data taken from ChEMBL document CHEMBL3988442, “University of Dundee, Small-Polar-MMV Screening Library” (2021).